Source: article doi:10.1101/2025.06.17.660062 (bioRxiv, 2025)
Where a chain is given by its changes, count along the chain named. No constants are given. Whether binding was seen depends on the method and setting. Some binding calls cover weakened binding; strength is not graded here. For part of these data: Where a sequence is shown, tags or fusion partners need not be part of it.

What was measured:
[1] = biological target: mCherry-RZZ (ROD-Zwilch-ZW10 complex, wild type) (UniProt P50748); assay: SEC
[2] = biological target: T1, GST-BUB1 467−521^FFE (F475A, F500A-E501A) (UniProt O43683); assay: SEC
T1 sequence: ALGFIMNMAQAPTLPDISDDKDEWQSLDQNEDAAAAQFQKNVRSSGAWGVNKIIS

[3] = biological target: T2, GST-BUB1 467−521^FE (F500A-E501A) (UniProt O43683); assay: SEC
T2 sequence: T1 sequence with A9F

[4] = biological target: T1, GST-BUB1 467−521^FFE (F475A, F500A-E501A); assay: pull-down
[5] = biological target: T2, GST-BUB1 467−521^FE (F500A-E501A); assay: pull-down
GST-BUB1^477-521 = biological target: T3, GST-BUB1^477-521 (UniProt O43683); assay: pull-down
T3 sequence: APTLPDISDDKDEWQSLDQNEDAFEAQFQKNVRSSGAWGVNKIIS

| Substance | binding [1] | binding [2] | binding [3] | binding [4] | binding [5] | binding (GST-BUB1^477-521) |
| --- | --- | --- | --- | --- | --- | --- |
| BUBR1:BUB3 (from UniProt O60566 1-1050; O43684 1-328) (complex) | no binding |  |  |  |  |  |
| mCherry-RZZ (ROD-Zwilch-ZW10 complex, wild type) (from UniProt P50748 1-2209; Q9H900 1-591; O43264 1-779) |  | no binding | no binding | no binding | no binding | binds weakly |
